According to US20170145472A1, “METHOD OF DETECTING HELICASE ACTIVITY” (University of Macau, priority 2015, published 2017):

Test: Direct quenching control on complex 9 or the complex 9+G-quadruplex ensemble
Conditions: 20 μM ciprofloxacin

Compound: O=C(O)c1cn(C2CC2)c2cc(N3CCNCC3)c(F)cc2c1=O [ciprofloxacin, reference compound]
- direct quenching effect on luminescence of complex 9 or the complex 9+G-quadruplex ensemble: no direct quenching effect
